# Literature values, collected in patent publication US20220194951A1, “DIHYDROPYRIMIDINE COMPOUND AND APPLICATION THEREOF AS DRUG” (SUNSHINE LAKE PHARMA CO., LTD., priority 2019, published 2022).
# For at least one compound, name, drawing or mass did not settle the structure.
# System: hepatitis B virus
# Details: from Science, 299(2003), 893-896; cited from earlier work
smiles,measurement,value
Nc1ccn([C@@H]2CS[C@H](CO)O2)c(=O)n1 [lamivudine],IC50,300 nM
